Measurements from publication PMC8654949.
These are yes or no findings as the source states them, for the method shown. In cells and extracts the contact can be indirect. Binding can be weak; no strength is given.

Sequences of proteins named here, by UniProt entry; tags and fusion partners are left off. A change or cut given only in a name is not applied to a line headed by its entry.
UniProt Q86X51: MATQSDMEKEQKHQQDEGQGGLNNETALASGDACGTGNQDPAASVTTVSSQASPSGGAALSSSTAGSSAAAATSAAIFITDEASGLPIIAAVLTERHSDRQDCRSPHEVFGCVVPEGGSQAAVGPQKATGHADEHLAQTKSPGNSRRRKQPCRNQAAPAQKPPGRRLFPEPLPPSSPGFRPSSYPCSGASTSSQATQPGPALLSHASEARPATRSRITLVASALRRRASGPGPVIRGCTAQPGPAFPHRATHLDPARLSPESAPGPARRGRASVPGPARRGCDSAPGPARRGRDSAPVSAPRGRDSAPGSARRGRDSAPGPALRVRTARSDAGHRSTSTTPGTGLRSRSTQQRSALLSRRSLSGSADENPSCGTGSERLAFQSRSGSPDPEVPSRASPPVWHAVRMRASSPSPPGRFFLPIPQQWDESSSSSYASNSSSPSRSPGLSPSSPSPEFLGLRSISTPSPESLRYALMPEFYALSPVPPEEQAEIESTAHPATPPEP
UniProt A6NHR9: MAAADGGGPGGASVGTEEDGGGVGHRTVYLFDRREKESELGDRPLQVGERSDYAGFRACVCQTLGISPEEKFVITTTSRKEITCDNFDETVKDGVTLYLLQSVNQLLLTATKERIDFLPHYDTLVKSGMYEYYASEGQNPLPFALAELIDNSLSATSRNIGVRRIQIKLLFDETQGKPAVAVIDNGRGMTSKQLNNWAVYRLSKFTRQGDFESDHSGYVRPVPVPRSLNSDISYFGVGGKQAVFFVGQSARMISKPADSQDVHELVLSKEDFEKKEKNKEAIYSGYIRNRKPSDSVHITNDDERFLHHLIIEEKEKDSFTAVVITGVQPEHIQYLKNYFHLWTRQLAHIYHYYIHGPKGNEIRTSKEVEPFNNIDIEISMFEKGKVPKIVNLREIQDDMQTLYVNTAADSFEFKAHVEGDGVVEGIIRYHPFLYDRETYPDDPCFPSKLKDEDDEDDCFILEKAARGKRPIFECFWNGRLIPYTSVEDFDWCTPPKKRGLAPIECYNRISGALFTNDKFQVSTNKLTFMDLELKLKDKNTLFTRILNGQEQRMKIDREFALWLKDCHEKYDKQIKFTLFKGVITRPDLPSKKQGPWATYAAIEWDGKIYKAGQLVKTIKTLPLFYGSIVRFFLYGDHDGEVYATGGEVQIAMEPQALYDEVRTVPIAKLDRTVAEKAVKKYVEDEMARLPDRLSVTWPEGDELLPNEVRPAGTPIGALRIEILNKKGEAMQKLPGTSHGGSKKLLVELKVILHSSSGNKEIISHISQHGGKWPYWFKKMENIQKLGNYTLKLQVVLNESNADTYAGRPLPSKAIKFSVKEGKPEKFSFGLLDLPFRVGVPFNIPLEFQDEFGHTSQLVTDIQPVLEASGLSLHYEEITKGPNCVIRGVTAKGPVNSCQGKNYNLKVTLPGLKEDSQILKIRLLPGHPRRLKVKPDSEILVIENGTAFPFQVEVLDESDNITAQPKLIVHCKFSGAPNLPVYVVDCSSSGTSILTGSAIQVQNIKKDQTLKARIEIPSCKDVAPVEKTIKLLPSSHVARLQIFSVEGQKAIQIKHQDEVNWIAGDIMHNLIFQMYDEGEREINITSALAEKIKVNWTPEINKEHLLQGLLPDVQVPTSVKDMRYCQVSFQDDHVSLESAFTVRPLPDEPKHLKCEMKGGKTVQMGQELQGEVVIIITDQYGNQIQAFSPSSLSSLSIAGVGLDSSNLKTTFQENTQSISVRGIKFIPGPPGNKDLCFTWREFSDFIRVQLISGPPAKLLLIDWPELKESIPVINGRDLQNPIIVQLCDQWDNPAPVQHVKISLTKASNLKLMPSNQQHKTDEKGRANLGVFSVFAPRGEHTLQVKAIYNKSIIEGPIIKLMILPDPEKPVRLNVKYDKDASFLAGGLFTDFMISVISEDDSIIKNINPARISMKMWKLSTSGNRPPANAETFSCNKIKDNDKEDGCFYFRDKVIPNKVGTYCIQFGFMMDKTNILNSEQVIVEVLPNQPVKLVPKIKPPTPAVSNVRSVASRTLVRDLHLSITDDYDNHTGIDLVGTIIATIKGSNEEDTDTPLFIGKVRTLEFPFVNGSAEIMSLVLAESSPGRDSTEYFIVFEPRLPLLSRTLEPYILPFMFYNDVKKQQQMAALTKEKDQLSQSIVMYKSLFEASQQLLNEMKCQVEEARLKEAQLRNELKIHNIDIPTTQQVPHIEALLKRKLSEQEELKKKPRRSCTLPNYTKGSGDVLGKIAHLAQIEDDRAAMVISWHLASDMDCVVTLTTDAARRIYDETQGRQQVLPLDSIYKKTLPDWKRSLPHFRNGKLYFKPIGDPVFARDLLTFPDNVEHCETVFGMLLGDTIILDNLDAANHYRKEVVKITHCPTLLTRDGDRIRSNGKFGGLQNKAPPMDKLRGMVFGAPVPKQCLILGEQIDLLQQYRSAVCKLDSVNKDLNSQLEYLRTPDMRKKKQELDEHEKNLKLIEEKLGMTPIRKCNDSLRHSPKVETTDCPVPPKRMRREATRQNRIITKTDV

Target: endogenous EZHIP of U2OS cells (form of higher molecular weight) (human (endogenous in U2OS)) (UniProt Q86X51)
Test: co-IP; endogenous proteins; antibody (1 µg) conjugated to Dynabeads protein A and protein G (3:1); lysates of HEK293T, U2OS, HeLa cells or control myoblasts; western blot

endogenous SMCHD1 (from UniProt A6NHR9 1-2005)
binding: binds
